The results in this text go back to PubChem BioAssay AID338 (DTP/NCI, 2004).

The list shows only some results of the screen, not a fair sample: it gathers tests that were run many times, whatever their T/C, doses with no T/C, and many T/C values between a quarter and a half above the control. Further doses and runs are listed elsewhere. T/C gives the treated animals as a percentage of the vehicle group. Some doses have a count of surviving animals in place of a T/C: the source holds a T/C of zero for them, seemingly a mark for toxic or unscored doses. Some survivor counts are full or nearly so, which does not show that the dose was tolerated: the source hardly ever lists a survival T/C far under the control, and the zero likely stands for such cases as well. Counts of survivors are from the toxicity check (mostly the fifth day) where no day follows; animals may have died later. Schedule codes are those of the source, taken here to give the interval after Q, in days (D) or hours (H), and the number of doses after X. Some entries hold several experiments; the values are given in rising order. Some structures stand for samples that the source files as different forms (salt, stereo form or complex); doses refer to the form tested. Where survival is the endpoint, the PubChem record calls one and a half times the control and up active, and a quarter to a half above the control has no call in these data; cut-offs in other NCI protocols can differ. Counts like (3×) count equal records among those shown. Some schedules carry Z or #; the key to these is not given.

The test system of this test is BDF1 mice, P388 leukemia (terephthalanilide-resistant), survival T/C. The test is described as follows: NCI In Vivo Anticancer Drug Screen. Data for tumor model P388 Leukemia resistant to A Terephthalanilide; NSC 38280 (intraperitoneal) in B6D2F1 (BDF1) mice. To be noted: T/C endpoint: median survival time, higher T/C = longer survival. The protocol:
The antitumor activity of compounds was measured in mice bearing transplantable tumors. Survival or tumor size were measured and the results are expressed as the measurement made in the treated group (T) divided by the measurement made in the vehicle treated control group (C). The tumor model used in this assay is P388 Leukemia resistant to A Terephthalanilide; NSC 38280 (intraperitoneal) in B6D2F1 (BDF1) mice

[1] abbreviates: dose: 5.0 mg/kg/injection, schedule: Q01DX010 (ip), vehicle: saline.
Setting [2] is: dose: 10.0 mg/kg/injection, schedule: Q01DX010 (ip), vehicle: saline.
[3] abbreviates: dose: 20.0 mg/kg/injection, schedule: Q01DX010 (ip), vehicle: saline.
Setting [4] is: dose: 40.0 mg/kg/injection, schedule: Q01DX010 (ip), vehicle: saline.
The mark [5] stands for this setting: dose: 50.0 mg/kg/injection, schedule: Q01DX010 (ip), vehicle: saline.
Setting [6] is: dose: 32.0 mg/kg/injection, schedule: Q01DX010 (ip), vehicle: saline.
Where [7] appears, read: dose: 4.0 mg/kg/injection, schedule: Q01DX010 (ip), vehicle: saline.
The mark [8] stands for this setting: dose: 16.0 mg/kg/injection, schedule: Q01DX010 (ip), vehicle: saline.
Where [9] appears, read: dose: 8.0 mg/kg/injection, schedule: Q01DX010 (ip), vehicle: saline.
The mark [10] stands for this setting: dose: 250.0 mg/kg/injection, schedule: Q01DX010 (ip), vehicle: saline.
Setting [11] is: dose: 125.0 mg/kg/injection, schedule: Q01DX010 (ip), vehicle: saline.

As to `COc1cc(-c2ccc(Nc3ccccc3C(=O)O)c(OC)c2)ccc1Nc1ccccc1C(=O)O`, the T/C was 129 and 136 % of control (dose: 45.0 mg/kg/injection, schedule: Q01DX010 (ip), vehicle: saline); 141 % of control (dose: 67.0 mg/kg/injection, schedule: Q01DX010 (ip), vehicle: saline); 129 % of control (dose: 100.0 mg/kg/injection, schedule: Q01DX010 (ip), vehicle: saline). Moreover, the survivor count (dose: 150.0 mg/kg/injection, schedule: Q01DX010 (ip), vehicle: saline) was 1 of 6 and 5 of 6.

Consider `Cc1cc(N(CCCl)CCCl)ccc1N=Nc1ccccc1C(=O)O`, for which the T/C runs as follows: under setting [1], 130 % of control; under setting [2], 125 and 127 % of control; under setting [3], 135 and 144 % of control. Besides, under setting [4], the survivor count is recorded as 6 of 6.

On to `O=c1cnn(C2OC(CO)C(O)C2O)c(=O)[nH]1` (stereo not given), for which the T/C is, setting by setting: (dose: 200.0 mg/kg/injection, schedule: Q01DX010 (ip), vehicle: saline) 125 % of control; (dose: 400.0 mg/kg/injection, schedule: Q01DX010 (ip), vehicle: saline) 135 % of control.

Take `O=c1[nH]cc(F)c(=O)[nH]1`: the T/C under setting [1] was 144 % of control.

With `O=C(Nc1ccc(C2=NCCN2)cc1)c1ccc(C(=O)Nc2ccc(C3=NCCN3)cc2)c([N+](=O)[O-])c1`, the T/C (dose: 12.0 mg/kg/injection, schedule: Q01DX010 (ip), vehicle: saline) was 125 % of control.

Take `CS(=O)(=O)OCCCCOS(C)(=O)=O`: the survivor count under setting [5] is 4 of 6.

In the case of `CNc1nc(Nc2ccc(C3=NCCN3)cc2)nc(Nc2ccc(C3=NCCN3)cc2)n1`, the T/C reads like this: (dose: 13.3 mg/kg/injection, schedule: Q01DX010 (ip), vehicle: saline) 140 % of control; (dose: 15.0 mg/kg/injection, schedule: Q01DX010 (ip), vehicle: saline) 140 % of control; (dose: 30.0 mg/kg/injection, schedule: Q01DX010 (ip), vehicle: saline) 140 % of control.

Take `CN(C)c1ccc(/C=C/c2ccnc3ccccc23)cc1`: under setting [4], the survivor count is 5 of 6.

As for `Nc1nc(SCc2ccccc2)c2[nH]cnc2n1`, the T/C under setting [6] is 133 % of control.

Turning to `O=C(Nc1ccc(NC2=NCCN2)cc1)c1ccc(C(=O)Nc2ccc(NC3=NCCN3)cc2)cc1`, the T/C is 125 % of control under setting [7] and 137 % of control (2×) under setting [8].

Turning to `Nc1nc(=S)c2ncn(C3OC(CO)C(O)C3O)c2[nH]1` (stereo not given), the T/C was 140 % of control (dose: 2.0 mg/kg/injection, schedule: Q01DX010 (ip), vehicle: saline) and 125 % of control under setting [7]. Besides, the survivor count reads like this: under setting [9], 6 of 6; under setting [8], 6 of 6.

In the case of `O=C(O)CCCc1ccc(N(CCCl)CCCl)cc1`, for the setting “dose: 25.0 mg/kg/injection, schedule: Q01DX010 (ip), vehicle: saline”, the survivor count is 0 of 6 and 4 of 6.

As for `O=C(Nc1ccc(C2=NCCN2)cc1)c1ccc(C(=O)Nc2ccc(C3=NCCN3)cc2)cc1`, the T/C (dose: 112.0 mg/kg/injection, schedule: Q01DX010 (ip), vehicle: saline) is 133 % of control and the T/C under setting [10] is 127 % of control.

With `O=NN(CCCl)C(=O)NCCCl`, the survivor count under setting [5] is 5 of 6 and 6 of 6.

Regarding `S=P(N1CCOCC1)(N1CC1)N1CC1`, the T/C under setting [2] is 126 and 127 % of control; the T/C under setting [3] was 127 and 136 % of control.

Regarding `N#CCSc1ncnc2nc[nH]c12`, the survivor count (dose: 120.0 mg/kg/injection, schedule: Q01DX010 (ip), vehicle: saline) is 0 of 6.

`c1ccc(CNc2ncnc3[nH]ncc23)cc1`: the survivor count under setting [9] is recorded as 6 of 6.

`C1CN1c1nc(N2CC2)nc(N2CC2)n1`: the T/C (dose: 0.5 mg/kg/injection, schedule: Q01DX010 (ip), vehicle: saline) is 135 % of control. Besides, the survivor count (dose: 1.0 mg/kg/injection, schedule: Q01DX010 (ip), vehicle: saline) is 6 of 6.

As to `O=C(Nc1ccc(C2=NCCN2)cc1)c1cccc(C(=O)Nc2ccc(C3=NCCN3)cc2)c1`, the T/C by setting is: under setting [8], 125 % of control; under setting [6], 137 % of control.

For `CCCSc1ncnc2nc[nH]c12`, the T/C is 125 % of control under setting [11] and 131 % of control under setting [10].

On to `CC1CCOS(=O)O1` (stereo not given), for which, for the setting “dose: 80.0 mg/kg/injection, schedule: Q01DX010 (ip), vehicle: saline”, the survivor count is given as 6 of 6.

`NC(=O)N(CCCl)N=O`: under setting [7], the survivor count was 6 of 6.

Turning to `S=c1nc[nH]c2nc[nH]c12`, the T/C reads like this: (dose: 40.0 mg/kg/injection, schedule: Q01DX Z (ip), vehicle: saline) 127 % of control; (dose: 80.0 mg/kg/injection, schedule: Q01DX010 (ip), vehicle: alkali diluted with saline) 133 % of control; (dose: 80.0 mg/kg/injection, schedule: Q01DX Z (ip), vehicle: saline) 127 % of control.

Regarding `CN(C)CC(=O)c1ccc(O)c(O)c1`, for the setting “dose: 675.0 mg/kg/injection, schedule: Q01DX010 (ip), vehicle: saline”, the survivor count is 0 of 6.

Turning to `CN(Cc1cnc2nc(N)nc(N)c2n1)c1ccc(C(=O)N[C@@H](CCC(=O)O)C(=O)O)cc1`, the T/C (dose: 0.19 mg/kg/injection, schedule: Q01DX Z (ip), vehicle: saline) is 131 and 136 % of control; the T/C (dose: 0.38 mg/kg/injection, schedule: Q01DX010 (ip), vehicle: other) is 144 % of control.

With `CC(=O)N(C)C`, the survivor count is, setting by setting: under setting [11], 6 of 6; under setting [10], 6 of 6.

`CCn1cnc2c(=S)nc[nH]c21`: the T/C under setting [11] is 133 % of control.

Regarding `NC(Cc1ccc(N(CCCl)CCCl)cc1)C(=O)O` (stereo not given), the T/C runs as follows: (dose: 1.25 mg/kg/injection, schedule: Q01DX010 (ip), vehicle: saline) 140 % of control; (dose: 2.5 mg/kg/injection, schedule: Q01DX010 (ip), vehicle: saline) 140 % of control. The survivor count runs as follows: under setting [1], 6 of 6; (dose: 8.0 mg/kg/injection, schedule: Q01DX010 (ip), vehicle: other) 6 of 6; under setting [2], 6 of 6; (dose: 16.0 mg/kg/injection, schedule: Q01DX010 (ip), vehicle: other) 6 of 6.
